Our source for the NP40-soluble protein abundance values is the supplement of paper PMC6411743.

Sequences of proteins named here, by UniProt entry; tags and fusion partners are left off. A change or cut given only in a name is not applied to a line headed by its entry.
UniProt O14733: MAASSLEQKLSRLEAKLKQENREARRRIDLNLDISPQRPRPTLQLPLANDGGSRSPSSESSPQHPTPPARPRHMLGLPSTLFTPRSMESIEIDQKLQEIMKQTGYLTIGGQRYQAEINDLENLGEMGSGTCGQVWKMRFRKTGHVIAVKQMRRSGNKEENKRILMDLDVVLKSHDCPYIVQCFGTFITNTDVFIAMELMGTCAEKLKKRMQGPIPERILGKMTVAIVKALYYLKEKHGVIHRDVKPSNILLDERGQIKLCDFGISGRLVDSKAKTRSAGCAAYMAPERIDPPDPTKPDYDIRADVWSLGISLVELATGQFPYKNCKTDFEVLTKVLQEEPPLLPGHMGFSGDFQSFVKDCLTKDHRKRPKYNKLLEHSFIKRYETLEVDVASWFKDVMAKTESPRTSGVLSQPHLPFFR
UniProt O43390: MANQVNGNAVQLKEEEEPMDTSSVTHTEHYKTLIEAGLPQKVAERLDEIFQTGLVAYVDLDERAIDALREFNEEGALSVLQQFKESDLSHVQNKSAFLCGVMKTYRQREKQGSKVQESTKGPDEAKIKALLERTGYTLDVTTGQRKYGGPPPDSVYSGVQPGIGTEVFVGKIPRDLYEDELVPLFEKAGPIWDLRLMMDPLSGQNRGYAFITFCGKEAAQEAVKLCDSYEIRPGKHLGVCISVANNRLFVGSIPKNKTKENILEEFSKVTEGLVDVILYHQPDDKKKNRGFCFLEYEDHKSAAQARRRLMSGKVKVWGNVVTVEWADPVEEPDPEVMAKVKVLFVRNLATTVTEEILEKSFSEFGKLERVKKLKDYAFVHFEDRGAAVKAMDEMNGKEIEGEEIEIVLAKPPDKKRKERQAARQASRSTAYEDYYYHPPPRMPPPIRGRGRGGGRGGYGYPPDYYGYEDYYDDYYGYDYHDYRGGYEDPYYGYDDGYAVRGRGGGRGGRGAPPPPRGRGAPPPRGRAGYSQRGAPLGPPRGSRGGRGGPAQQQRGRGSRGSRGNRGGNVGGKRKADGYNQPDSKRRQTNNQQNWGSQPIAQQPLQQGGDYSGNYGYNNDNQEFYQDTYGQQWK
UniProt O00148, whole entry: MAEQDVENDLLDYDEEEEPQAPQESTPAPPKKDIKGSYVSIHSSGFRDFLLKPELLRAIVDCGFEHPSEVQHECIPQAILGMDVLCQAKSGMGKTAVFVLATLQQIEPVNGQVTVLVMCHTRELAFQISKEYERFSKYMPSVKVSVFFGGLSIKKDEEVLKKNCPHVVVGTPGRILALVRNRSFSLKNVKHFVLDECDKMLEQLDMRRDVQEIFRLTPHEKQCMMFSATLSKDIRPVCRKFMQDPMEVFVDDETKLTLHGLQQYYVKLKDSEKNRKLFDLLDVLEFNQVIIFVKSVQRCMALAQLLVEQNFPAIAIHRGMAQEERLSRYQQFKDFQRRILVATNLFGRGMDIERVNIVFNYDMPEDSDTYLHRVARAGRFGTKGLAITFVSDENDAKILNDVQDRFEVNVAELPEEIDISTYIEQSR
UniProt O14908: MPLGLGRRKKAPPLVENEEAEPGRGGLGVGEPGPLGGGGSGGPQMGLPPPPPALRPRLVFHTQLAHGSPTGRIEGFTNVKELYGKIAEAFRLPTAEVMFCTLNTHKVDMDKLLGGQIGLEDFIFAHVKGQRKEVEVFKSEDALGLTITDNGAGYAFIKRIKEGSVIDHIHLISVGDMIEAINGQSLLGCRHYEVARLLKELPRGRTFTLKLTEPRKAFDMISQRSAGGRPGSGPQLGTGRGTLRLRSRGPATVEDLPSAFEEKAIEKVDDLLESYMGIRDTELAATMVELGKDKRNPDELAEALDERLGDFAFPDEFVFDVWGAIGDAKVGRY
UniProt O43665: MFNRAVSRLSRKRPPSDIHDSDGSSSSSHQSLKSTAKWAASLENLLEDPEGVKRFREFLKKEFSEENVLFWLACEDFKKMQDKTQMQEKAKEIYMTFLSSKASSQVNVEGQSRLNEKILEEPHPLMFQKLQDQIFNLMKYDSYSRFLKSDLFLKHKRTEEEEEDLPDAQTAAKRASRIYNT
UniProt O43148, whole entry: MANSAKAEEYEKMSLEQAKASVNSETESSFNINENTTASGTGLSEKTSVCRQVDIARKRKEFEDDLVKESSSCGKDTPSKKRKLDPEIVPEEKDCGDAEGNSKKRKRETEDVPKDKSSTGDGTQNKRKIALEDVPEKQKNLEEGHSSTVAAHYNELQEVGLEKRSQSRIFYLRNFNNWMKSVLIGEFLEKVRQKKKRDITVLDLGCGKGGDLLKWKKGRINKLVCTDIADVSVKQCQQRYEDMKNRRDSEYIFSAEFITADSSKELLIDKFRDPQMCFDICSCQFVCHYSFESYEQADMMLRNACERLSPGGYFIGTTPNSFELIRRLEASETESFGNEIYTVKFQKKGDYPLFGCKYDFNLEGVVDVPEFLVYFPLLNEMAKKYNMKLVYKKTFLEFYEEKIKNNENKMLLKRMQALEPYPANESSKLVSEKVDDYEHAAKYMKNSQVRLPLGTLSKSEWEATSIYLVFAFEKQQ
UniProt O43684, whole entry: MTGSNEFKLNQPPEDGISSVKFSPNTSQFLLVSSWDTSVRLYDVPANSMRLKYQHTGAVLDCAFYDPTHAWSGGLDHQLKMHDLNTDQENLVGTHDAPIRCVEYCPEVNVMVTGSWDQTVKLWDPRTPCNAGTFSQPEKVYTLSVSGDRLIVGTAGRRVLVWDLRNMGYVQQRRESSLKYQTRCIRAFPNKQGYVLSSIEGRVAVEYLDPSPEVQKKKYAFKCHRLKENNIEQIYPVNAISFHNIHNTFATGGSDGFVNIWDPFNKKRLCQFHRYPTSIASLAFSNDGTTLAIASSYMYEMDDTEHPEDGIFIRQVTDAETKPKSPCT
UniProt O75821, whole entry: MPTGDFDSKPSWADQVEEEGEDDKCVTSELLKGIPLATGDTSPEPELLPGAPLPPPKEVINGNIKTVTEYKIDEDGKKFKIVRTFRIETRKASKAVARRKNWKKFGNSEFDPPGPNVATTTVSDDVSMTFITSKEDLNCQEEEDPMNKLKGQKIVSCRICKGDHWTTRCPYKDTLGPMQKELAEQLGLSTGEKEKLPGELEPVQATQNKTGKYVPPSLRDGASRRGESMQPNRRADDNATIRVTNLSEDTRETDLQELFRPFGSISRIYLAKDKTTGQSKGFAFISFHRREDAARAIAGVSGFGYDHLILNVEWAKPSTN
UniProt Q5UCC4: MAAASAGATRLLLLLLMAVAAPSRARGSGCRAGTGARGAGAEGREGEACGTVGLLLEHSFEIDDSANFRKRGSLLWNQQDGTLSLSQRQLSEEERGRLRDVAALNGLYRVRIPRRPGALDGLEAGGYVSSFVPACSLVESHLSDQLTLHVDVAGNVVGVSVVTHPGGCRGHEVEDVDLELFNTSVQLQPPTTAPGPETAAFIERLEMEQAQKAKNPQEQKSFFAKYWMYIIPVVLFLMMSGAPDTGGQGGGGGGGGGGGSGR
UniProt O43181, whole entry: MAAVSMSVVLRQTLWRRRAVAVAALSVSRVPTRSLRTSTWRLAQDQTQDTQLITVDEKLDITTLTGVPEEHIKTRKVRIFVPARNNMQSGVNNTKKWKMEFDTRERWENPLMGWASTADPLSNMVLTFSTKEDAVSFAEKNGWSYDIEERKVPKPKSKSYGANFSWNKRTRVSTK
UniProt O15014: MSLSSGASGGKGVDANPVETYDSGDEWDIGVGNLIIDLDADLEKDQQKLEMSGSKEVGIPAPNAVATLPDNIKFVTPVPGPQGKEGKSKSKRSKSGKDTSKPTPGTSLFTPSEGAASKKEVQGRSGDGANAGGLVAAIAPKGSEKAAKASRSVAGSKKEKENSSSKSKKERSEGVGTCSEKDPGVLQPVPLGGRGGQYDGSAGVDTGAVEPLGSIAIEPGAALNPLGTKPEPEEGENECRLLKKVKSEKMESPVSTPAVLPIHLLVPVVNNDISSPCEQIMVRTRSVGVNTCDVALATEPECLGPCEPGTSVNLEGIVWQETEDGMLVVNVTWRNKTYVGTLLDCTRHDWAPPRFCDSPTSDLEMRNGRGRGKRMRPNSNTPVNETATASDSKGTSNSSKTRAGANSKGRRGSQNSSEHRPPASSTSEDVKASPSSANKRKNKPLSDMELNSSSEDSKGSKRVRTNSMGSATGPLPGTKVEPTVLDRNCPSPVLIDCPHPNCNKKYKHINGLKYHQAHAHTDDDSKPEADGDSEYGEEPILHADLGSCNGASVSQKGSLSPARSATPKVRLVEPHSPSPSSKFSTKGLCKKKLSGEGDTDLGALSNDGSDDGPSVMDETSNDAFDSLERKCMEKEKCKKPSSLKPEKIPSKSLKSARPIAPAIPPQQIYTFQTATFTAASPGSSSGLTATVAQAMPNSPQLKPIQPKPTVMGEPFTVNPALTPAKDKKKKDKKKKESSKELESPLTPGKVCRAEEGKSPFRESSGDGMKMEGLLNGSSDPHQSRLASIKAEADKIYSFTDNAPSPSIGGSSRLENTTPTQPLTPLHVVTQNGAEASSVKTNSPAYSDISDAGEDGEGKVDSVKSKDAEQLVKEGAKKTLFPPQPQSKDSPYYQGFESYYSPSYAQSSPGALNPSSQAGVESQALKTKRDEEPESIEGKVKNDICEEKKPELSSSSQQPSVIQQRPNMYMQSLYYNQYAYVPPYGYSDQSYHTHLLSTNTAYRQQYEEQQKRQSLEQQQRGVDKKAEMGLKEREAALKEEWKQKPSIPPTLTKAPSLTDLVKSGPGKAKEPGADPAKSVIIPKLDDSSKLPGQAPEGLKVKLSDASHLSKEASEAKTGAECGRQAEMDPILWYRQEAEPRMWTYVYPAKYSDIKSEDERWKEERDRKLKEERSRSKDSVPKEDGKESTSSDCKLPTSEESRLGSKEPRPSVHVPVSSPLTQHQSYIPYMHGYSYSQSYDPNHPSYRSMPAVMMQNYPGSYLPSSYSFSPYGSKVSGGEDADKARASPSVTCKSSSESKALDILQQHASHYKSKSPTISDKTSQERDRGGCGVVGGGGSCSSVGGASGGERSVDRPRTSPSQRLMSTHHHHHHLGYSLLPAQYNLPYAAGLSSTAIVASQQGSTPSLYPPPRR
UniProt O43822: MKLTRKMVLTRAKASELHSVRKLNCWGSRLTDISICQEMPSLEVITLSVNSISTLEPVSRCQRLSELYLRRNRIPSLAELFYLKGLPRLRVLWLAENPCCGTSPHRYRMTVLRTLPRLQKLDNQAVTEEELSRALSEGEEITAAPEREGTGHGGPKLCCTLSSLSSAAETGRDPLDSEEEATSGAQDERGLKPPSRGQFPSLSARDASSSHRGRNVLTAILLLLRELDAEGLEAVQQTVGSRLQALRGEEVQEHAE
UniProt Q96C34: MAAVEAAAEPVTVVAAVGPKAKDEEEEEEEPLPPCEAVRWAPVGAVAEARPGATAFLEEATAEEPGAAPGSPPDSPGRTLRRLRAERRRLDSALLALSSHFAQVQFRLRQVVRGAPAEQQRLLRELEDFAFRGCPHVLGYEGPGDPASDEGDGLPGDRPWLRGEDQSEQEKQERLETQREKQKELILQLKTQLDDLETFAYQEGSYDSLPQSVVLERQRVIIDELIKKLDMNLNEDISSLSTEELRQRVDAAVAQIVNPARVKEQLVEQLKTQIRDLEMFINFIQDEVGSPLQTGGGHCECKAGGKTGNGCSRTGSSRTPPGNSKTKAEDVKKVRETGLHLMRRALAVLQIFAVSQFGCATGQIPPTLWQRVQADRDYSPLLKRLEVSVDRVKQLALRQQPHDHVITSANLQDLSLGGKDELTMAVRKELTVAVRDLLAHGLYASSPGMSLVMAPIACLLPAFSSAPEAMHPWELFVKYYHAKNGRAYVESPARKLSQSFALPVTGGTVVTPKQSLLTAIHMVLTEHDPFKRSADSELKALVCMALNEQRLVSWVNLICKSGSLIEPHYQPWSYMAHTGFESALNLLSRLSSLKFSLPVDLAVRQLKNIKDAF
UniProt O43617, whole entry: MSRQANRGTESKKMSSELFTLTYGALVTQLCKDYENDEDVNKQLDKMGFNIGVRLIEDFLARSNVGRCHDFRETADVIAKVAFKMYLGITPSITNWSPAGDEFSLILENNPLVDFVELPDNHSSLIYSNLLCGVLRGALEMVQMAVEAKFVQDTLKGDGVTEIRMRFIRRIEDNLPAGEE
UniProt O43237, whole entry: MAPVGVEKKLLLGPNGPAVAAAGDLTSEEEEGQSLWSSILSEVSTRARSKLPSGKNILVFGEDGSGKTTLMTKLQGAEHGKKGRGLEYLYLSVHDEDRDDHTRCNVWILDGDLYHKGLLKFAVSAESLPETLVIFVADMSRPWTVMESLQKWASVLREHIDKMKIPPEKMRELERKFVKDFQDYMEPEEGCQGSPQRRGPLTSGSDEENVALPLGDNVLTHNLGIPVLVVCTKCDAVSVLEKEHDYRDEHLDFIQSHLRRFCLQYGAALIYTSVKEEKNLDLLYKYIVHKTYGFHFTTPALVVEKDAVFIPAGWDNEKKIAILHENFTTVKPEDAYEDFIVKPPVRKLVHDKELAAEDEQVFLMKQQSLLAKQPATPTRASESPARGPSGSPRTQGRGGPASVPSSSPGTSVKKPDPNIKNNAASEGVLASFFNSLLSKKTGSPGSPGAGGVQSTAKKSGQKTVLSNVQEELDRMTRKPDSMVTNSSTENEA

± gives the standard deviation of the averaged measurements. The entries are a selection whose mix differs from that of the whole data set.

Compound in the experiment: Nc1ncnc2c1ncn2[C@@H]1O[C@H](COP(=O)(O)OP(=O)(O)NP(=O)(O)O)[C@@H](O)[C@H]1O [adenylyl imidodiphosphate]
Nature of the experiment: NP40-soluble protein abundance relative to vehicle (solubility fold change) (ratio); higher = more soluble protein in presence of AMP-PNP. The method, boiled down: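 Jurkat crude lysate (Dounce-homogenised) was treated with eight concentrations from 0.1 to 10 mM for 10 min at room temperature, then 3 min at 37 °C. It was solubilised with 0.8% NP40 and benzonase (60 min, 4 °C) and ultracentrifuged, and the supernatant was TMT-labelled for LC-MS/MS. Intensities were vsn-normalised, and the value is the fold change against the NP40-processed vehicle per replicate, from three independent experiments.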

Consider UniProt O14733 and related entries, for which the NP40-soluble protein abundance is, setting by setting: (concentration: 1mM) 1.06 ± 0.023; (concentration: 2mM) 1.02 ± 0.082; (concentration: 4mM) 1.06 ± 0.059; (concentration: 6mM) 1.02 ± 0.018; (concentration: 8mM) 1.03 ± 0.067; (concentration: 10mM) 1.06 ± 0.061.

Take HNRNPR (UniProt O43390): the NP40-soluble protein abundance runs as follows: (concentration: 1mM) 1.02 ± 0.11; (concentration: 2mM) 0.971 ± 0.15; (concentration: 4mM) 0.973 ± 0.17; (concentration: 6mM) 1 ± 0.17; (concentration: 8mM) 1.07 ± 0.11; (concentration: 10mM) 1.06 ± 0.14.

Consider UniProt O00148, for which the NP40-soluble protein abundance (concentration: 1mM) was found to be 0.966 ± 0.038; the NP40-soluble protein abundance (concentration: 2mM) worked out at 0.903 ± 0.064; the NP40-soluble protein abundance (concentration: 4mM) turned out to be 0.9432 ± 0.0072; the NP40-soluble protein abundance (concentration: 6mM) came out at 0.981 ± 0.037; the NP40-soluble protein abundance (concentration: 8mM) stood at 0.996 ± 0.022; the NP40-soluble protein abundance (concentration: 10mM) turned out to be 0.9943 ± 0.0093.

Take GIPC1 (UniProt O14908): the NP40-soluble protein abundance came out at 1.01 ± 0.04 (concentration: 1mM); 0.99 ± 0.01 (concentration: 2mM); 1.02 ± 0.037 (concentration: 4mM); 1.01 ± 0.017 (concentration: 6mM); 0.994 ± 0.04 (concentration: 8mM); 0.985 ± 0.035 (concentration: 10mM).

As for UniProt O43665 and related entries, the NP40-soluble protein abundance (concentration: 1mM) stood at 0.9422 ± 0.0088; the NP40-soluble protein abundance (concentration: 2mM) worked out at 0.977 ± 0.047; the NP40-soluble protein abundance (concentration: 4mM) is 0.911 ± 0.026; the NP40-soluble protein abundance (concentration: 6mM) amounted to 0.895 ± 0.012; the NP40-soluble protein abundance (concentration: 8mM) is 0.887 ± 0.04; the NP40-soluble protein abundance (concentration: 10mM) was found to be 0.836 ± 0.011.

Regarding UniProt O43148 and related entries, the NP40-soluble protein abundance is, setting by setting: (concentration: 1mM) 0.996 ± 0.013; (concentration: 2mM) 1.01 ± 0.011; (concentration: 4mM) 0.992 ± 0.017; (concentration: 6mM) 0.992 ± 0.027; (concentration: 8mM) 0.985 ± 0.029; (concentration: 10mM) 1 ± 0.033.

In the case of UniProt O43684 and related entries, the NP40-soluble protein abundance runs as follows: (concentration: 1mM) 1.01 ± 0.021; (concentration: 2mM) 0.966 ± 0.041; (concentration: 4mM) 1.05 ± 0.045; (concentration: 6mM) 1.11 ± 0.029; (concentration: 8mM) 1.16 ± 0.044; (concentration: 10mM) 1.15 ± 0.058.

With “K7ER90 and related entries (UniProt O75821)”, the NP40-soluble protein abundance reads like this: (concentration: 1mM) 1.02 ± 0.075; (concentration: 2mM) 1.1 ± 0.077; (concentration: 4mM) 1.11 ± 0.095; (concentration: 6mM) 1.24 ± 0.045; (concentration: 8mM) 1.27 ± 0.074; (concentration: 10mM) 1.42 ± 0.14.

“M0R2A0 and related entries (UniProt Q5UCC4)”: the NP40-soluble protein abundance runs as follows: (concentration: 1mM) 1.03 ± 0.034; (concentration: 2mM) 0.991 ± 0.021; (concentration: 4mM) 0.972 ± 0.027; (concentration: 6mM) 1 ± 0.051; (concentration: 8mM) 0.987 ± 0.062; (concentration: 10mM) 1 ± 0.05.

For NDUFS4 (UniProt O43181), the NP40-soluble protein abundance is, setting by setting: (concentration: 1mM) 0.96 ± 0.013; (concentration: 2mM) 0.958 ± 0.023; (concentration: 4mM) 0.935 ± 0.044; (concentration: 6mM) 0.922 ± 0.07; (concentration: 8mM) 0.923 ± 0.11; (concentration: 10mM) 0.915 ± 0.081.

For the target UniProt O15014 and related entries, the NP40-soluble protein abundance reads like this: (concentration: 1mM) 1.03 ± 0.059; (concentration: 2mM) 1.1 ± 0.049; (concentration: 4mM) 1.07 ± 0.042; (concentration: 6mM) 1.02 ± 0.063; (concentration: 8mM) 1 ± 0.056; (concentration: 10mM) 1.04 ± 0.058.

As to UniProt O43822 and related entries, the NP40-soluble protein abundance by setting is: (concentration: 1mM) 0.9824 ± 0.0079; (concentration: 2mM) 1.01 ± 0.035; (concentration: 4mM) 0.9922 ± 0.0037; (concentration: 6mM) 0.992 ± 0.015; (concentration: 8mM) 0.975 ± 0.029; (concentration: 10mM) 0.985 ± 0.011.

On to NDUFAB1 (UniProt O14561), for which the NP40-soluble protein abundance was found to be 0.9506 ± 0.0093 (concentration: 1mM); 1.01 ± 0.1 (concentration: 2mM); 0.957 ± 0.018 (concentration: 4mM); 0.907 ± 0.051 (concentration: 6mM); 0.885 ± 0.022 (concentration: 8mM); 0.912 ± 0.037 (concentration: 10mM).

Take “K7EQS2 and related entries (UniProt Q96C34)”: the NP40-soluble protein abundance by setting is: (concentration: 1mM) 0.963 ± 0.022; (concentration: 2mM) 0.95 ± 0.012; (concentration: 4mM) 0.94 ± 0.0013; (concentration: 6mM) 0.96011 ± 0.00081; (concentration: 8mM) 0.939 ± 0.024; (concentration: 10mM) 0.962 ± 0.021.

Consider UniProt O43617 and related entries, for which the NP40-soluble protein abundance by setting is: (concentration: 1mM) 0.906 ± 0.038; (concentration: 2mM) 0.87 ± 0.045; (concentration: 4mM) 0.93 ± 0.012; (concentration: 6mM) 0.894 ± 0.041; (concentration: 8mM) 0.921 ± 0.046; (concentration: 10mM) 0.854 ± 0.078.

As for DYNC1LI2 (UniProt O43237), the NP40-soluble protein abundance reads like this: (concentration: 1mM) 1.02 ± 0.057; (concentration: 2mM) 1.046 ± 0.0086; (concentration: 4mM) 1.01 ± 0.055; (concentration: 6mM) 0.993 ± 0.11; (concentration: 8mM) 0.963 ± 0.066; (concentration: 10mM) 0.982 ± 0.076.
